Microarray screen: hit calls

Calls as published in the ROBIN set (doi:10.1002/anie.202211358).

Targets (5′ to 3′):
PreQ1: PreQ1 riboswitch RNA pseudoknot, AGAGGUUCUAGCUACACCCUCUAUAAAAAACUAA. From B. subtilis. Hit rate about 0.7% of about 24,000 compounds.
SAM-II: SAM-II riboswitch RNA pseudoknot, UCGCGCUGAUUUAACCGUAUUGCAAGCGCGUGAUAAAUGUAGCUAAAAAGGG. Hit rate about 1% of about 21,000 compounds.
TPP: TPP riboswitch RNA three-way junction, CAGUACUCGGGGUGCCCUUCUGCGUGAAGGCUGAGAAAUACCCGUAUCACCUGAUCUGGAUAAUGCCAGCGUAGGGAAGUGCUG. Hit rate about 0.7% of about 24,000 compounds.

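The test is a small-molecule microarray: each compound is printed twice on a reactive slide, and binding shows as fluorescence of the labelled oligonucleotide after washing. For the PreQ1, TPP and SAM-II riboswitches the laboratory earlier reported (doi:10.1038/s41467-019-09493-3) 1 µM RNA, 2 h, and a rule that included a mean Z-score above 3 (spot signal-to-noise against the whole library), a score well above that on a control array, and duplicate spots agreeing (coefficient of variation under 100). The data file gives only the calls; its cut-offs may differ, and compounds hitting several targets are kept. The calls come from the array alone, and fixing a compound to the slide can hide its binding.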
A compound is marked hit if it was called a hit and no hit if it was screened but was not.
The compounds are a random part of those screened.
A target missing from an entry has no call listed here.
A dash means that no call is listed here.

Compound | PreQ1 | SAM-II | TPP
Oc1nc(S)ncc1Oc1ccc(Cl)cc1Cl | no hit | no hit | no hit
O=C1OC2(CCNCC2)CN1Cc1cnn(-c2ccccc2F)c1 | no hit | no hit | no hit
CCOC(=O)CNc1ccc(Oc2ccc(Oc3ccc(NCC(=O)OCC)cc3)cc2)cc1 | hit | no hit | no hit
CCOc1ccc(CNc2ncc(-c3ccccc3)n2C)cc1 | no hit | no hit | no hit
NS(=O)(=O)c1ccc(CCNCc2ccc(-c3ccc(F)cc3)o2)cc1 | no hit | - | no hit
COc1ccc2c(CNCc3cccs3)c(C(=O)O)n(Cc3ccccc3F)c2c1 | no hit | - | no hit
Cc1cccc(C)c1Oc1ncccc1CNC(=O)[C@@H](N)CO | no hit | no hit | no hit
COCc1nn(-c2ccccc2)c(N)c1-c1ccc(OC)c(OC)c1 | no hit | no hit | no hit
CNC(=O)OCN1C(=O)C2CC=CCC2C1=O (stereo unspecified) | no hit | no hit | no hit
O=S1(=O)CC(O)C(N2CCN(CCO)CC2)C1 (stereo unspecified) | no hit | no hit | no hit
CCOC(=O)c1cnc2c(C)cccc2c1Nc1ccc(C(C)=O)cc1 | no hit | no hit | no hit
NC(=O)c1ccc(NC(=O)CN2CCC(O)(CO)CC2)cc1 | no hit | no hit | no hit
Cc1ccc(N2CCCC2=O)cc1N | no hit | no hit | no hit
COc1cc(C=CC(=O)O)ccc1O | no hit | no hit | no hit
Cc1ncc(CO)c2c1Oc1nc(-c3ccc(F)cc3)[nH]c(=S)c1C2 | no hit | no hit | no hit
Cn1c(-c2ccc(Cl)cc2)cnc1NCc1ccccc1F | no hit | no hit | no hit
CCN(CC)CCN1CC(=O)C(c2nc3ccccc3s2)=C1N | no hit | - | no hit
N[C@@H]1CCN(C(=O)Cc2c(F)ccc(Cl)c2F)C[C@H]1O | no hit | no hit | no hit
O=C(c1ccccc1)c1ccc[nH]1 | no hit | no hit | no hit
Nc1c(C(=O)C2CC2)sc2nc(-c3cccs3)cc(C(F)(F)F)c12 | no hit | no hit | no hit
Cc1nccn1CC1(CNC2CSCCSC2)CC1 | no hit | no hit | no hit
CCOC(=O)N1CCN(c2c(NC3CCCCCCC3)c(=O)c2=O)CC1 | no hit | - | no hit
Cc1ccsc1CNCc1nc2ccc(C)c(C)c2[nH]1 | no hit | no hit | no hit
O=C1C=C(N2CCN(CCO)CC2)C2(CCCCC2)O1 | no hit | no hit | no hit
O=C1CC(Nc2ccccc2)C(=O)N1c1ccc(Br)cc1 (stereo unspecified) | no hit | no hit | no hit
C=CCn1c(N)c(-c2nc3ccccc3n2C)sc1=S | no hit | no hit | no hit
CCC[C@H](Nc1nc(-c2ccc(NC(=O)NCC)c(OC)c2)ncc1C)c1cccnc1 | no hit | no hit | no hit
COc1ccc(Cl)cc1-c1nc(CCSC)nn1CCO | no hit | no hit | no hit
CC(C)NC(=O)[C@@H]1C[C@@H](N)CN1C(=O)Cc1c(Cl)cccc1Cl | no hit | no hit | no hit
Cc1cc(C)n(CC(C)NCC(=O)Nc2ccc(Cl)cc2F)n1 (stereo unspecified) | no hit | no hit | no hit
CCNCC#CCOc1ccc(Br)cc1 | no hit | hit | no hit
O=C(c1cccc(-n2cnnc2)c1)N1CCC2(CC1)c1ccccc1CC2O (stereo unspecified) | no hit | no hit | no hit
CN(CCO)c1ccc(C(=O)N2CCCCC2CCN2CCCC2)cc1 (stereo unspecified) | no hit | no hit | no hit
Fc1ccc(Oc2ncccc2CNC2CN3CCC2CC3)cc1F (stereo unspecified) | hit | no hit | hit
COc1ccc(CNCc2ccncc2)cc1Cl | no hit | no hit | no hit
Cc1cc(=O)oc2cc(NC(=O)C(C)N)ccc12 (stereo unspecified) | no hit | no hit | no hit
Cn1c(=O)n(Cc2ccc(Cl)cc2)c(=O)c2c1ncn2CCO | no hit | no hit | no hit
Nc1c(-c2nc(-c3ccccc3Cl)no2)nnn1-c1cccc(F)c1 | no hit | - | no hit
CC(=O)c1nn(-c2ccc(F)cc2)nc1Nc1ccccc1-n1cccc1 | no hit | - | no hit
CC(C)Cc1ccc(C(C)C(=O)O)cc1 (stereo unspecified) | no hit | no hit | no hit
COc1cccc(CNc2nc3ccc(Cl)cc3nc2-n2nc(C)cc2C)c1 | no hit | - | no hit
O=C1CCCN1CCCNCc1cccc2ccccc12 | no hit | no hit | no hit
CS(=O)(=O)CCNCc1ccc(-c2ccc3ncnc(Nc4ccc(OCc5cccc(F)c5)c(Cl)c4)c3c2)o1 | no hit | no hit | no hit

The first 3 entries again:

- Oc1nc(S)ncc1Oc1ccc(Cl)cc1Cl | PreQ1: no hit; SAM-II: no hit; TPP: no hit
- O=C1OC2(CCNCC2)CN1Cc1cnn(-c2ccccc2F)c1 | PreQ1: no hit; SAM-II: no hit; TPP: no hit
- CCOC(=O)CNc1ccc(Oc2ccc(Oc3ccc(NCC(=O)OCC)cc3)cc2)cc1 | PreQ1: hit; SAM-II: no hit; TPP: no hit